Data: the supplement of paper PMC12819154, “High-throughput peptide-centric local stability assay extends protein–ligand identification to membrane proteins, tissues and bacteria” (Nature Structural & Molecular Biology, 2025)
The list shows a part of the results. Most entries show no effect beyond the scatter of the controls.

Sequences of proteins named here, by UniProt entry; tags and fusion partners are left off. A change or cut given only in a name is not applied to a line headed by its entry.
UniProt Q7TMC8: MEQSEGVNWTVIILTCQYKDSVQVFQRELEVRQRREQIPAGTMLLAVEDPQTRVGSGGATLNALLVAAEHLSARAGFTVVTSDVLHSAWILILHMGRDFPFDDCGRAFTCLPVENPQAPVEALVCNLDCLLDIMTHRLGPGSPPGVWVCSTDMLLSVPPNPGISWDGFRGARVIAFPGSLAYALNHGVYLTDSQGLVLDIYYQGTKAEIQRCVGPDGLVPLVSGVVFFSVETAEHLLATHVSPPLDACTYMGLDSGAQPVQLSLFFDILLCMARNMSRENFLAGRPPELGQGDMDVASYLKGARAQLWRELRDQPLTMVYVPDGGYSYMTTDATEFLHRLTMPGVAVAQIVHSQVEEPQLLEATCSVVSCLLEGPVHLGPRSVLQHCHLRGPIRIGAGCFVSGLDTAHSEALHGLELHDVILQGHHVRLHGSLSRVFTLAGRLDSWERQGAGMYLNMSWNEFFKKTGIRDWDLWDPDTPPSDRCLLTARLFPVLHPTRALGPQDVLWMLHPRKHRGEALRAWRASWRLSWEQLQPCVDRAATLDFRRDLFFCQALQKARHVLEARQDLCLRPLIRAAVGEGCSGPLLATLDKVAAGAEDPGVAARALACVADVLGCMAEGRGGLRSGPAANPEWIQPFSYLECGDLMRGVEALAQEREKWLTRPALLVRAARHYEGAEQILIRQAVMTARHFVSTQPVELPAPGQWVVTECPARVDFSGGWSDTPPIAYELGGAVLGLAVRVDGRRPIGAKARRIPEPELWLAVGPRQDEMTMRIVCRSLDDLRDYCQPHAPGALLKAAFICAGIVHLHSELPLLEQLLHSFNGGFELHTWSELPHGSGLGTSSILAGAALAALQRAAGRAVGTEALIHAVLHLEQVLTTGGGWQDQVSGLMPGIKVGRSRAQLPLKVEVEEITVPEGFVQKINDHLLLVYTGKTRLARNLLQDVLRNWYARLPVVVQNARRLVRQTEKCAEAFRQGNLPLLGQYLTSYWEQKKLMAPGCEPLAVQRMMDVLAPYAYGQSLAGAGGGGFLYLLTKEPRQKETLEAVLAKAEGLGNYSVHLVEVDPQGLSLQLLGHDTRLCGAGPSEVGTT
UniProt Q71KU9, whole entry: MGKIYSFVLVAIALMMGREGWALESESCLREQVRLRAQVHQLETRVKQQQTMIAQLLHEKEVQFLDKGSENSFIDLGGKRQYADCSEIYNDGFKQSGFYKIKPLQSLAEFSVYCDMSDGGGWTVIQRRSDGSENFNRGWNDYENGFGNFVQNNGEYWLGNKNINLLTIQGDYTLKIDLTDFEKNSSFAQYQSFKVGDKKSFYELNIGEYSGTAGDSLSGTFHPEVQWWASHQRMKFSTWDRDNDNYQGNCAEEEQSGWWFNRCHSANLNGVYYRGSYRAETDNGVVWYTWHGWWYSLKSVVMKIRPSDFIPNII
UniProt Q7TPE5: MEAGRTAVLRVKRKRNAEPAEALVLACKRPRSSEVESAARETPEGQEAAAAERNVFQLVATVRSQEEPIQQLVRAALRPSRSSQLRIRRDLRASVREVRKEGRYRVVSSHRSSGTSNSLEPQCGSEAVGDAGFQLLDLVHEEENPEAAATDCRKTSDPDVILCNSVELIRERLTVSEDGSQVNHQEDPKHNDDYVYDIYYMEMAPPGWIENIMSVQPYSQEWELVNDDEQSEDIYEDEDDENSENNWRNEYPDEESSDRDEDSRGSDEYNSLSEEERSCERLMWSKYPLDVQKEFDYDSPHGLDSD
UniProt Q6Y7W8: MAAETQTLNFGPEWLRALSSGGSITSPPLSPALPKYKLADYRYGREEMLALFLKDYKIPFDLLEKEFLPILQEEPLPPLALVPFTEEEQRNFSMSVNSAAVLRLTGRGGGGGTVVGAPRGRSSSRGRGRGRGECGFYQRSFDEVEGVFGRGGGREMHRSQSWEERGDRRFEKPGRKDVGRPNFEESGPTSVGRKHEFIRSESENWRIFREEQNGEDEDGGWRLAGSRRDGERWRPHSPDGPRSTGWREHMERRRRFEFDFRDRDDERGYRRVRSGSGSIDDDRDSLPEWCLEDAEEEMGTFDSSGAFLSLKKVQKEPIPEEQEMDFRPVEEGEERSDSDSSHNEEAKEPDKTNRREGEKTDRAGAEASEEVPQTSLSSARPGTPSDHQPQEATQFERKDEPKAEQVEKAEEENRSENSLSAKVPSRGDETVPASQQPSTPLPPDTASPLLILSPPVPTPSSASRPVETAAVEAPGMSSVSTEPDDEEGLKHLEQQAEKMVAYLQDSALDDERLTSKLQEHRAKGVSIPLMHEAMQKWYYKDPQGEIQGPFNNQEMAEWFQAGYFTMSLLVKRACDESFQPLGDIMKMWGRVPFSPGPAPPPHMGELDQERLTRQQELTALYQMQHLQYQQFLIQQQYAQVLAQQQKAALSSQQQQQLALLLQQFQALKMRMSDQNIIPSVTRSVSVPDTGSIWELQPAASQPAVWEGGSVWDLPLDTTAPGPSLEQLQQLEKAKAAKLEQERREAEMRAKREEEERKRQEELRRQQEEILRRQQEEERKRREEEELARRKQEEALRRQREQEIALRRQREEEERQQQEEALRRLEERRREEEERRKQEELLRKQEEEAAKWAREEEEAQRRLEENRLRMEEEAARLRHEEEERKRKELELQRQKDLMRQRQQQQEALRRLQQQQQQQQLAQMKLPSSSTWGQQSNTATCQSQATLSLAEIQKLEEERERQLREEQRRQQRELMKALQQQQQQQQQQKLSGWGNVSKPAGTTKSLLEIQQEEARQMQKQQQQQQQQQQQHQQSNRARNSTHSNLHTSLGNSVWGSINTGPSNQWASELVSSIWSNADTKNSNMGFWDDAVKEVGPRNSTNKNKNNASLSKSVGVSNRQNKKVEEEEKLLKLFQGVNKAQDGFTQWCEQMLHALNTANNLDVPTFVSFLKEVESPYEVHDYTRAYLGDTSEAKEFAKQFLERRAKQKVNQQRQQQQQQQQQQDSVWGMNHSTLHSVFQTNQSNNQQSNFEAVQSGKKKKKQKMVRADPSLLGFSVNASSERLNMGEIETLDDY
UniProt Q78IK2: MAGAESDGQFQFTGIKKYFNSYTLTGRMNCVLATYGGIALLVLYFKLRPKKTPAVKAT
UniProt Q80VC9: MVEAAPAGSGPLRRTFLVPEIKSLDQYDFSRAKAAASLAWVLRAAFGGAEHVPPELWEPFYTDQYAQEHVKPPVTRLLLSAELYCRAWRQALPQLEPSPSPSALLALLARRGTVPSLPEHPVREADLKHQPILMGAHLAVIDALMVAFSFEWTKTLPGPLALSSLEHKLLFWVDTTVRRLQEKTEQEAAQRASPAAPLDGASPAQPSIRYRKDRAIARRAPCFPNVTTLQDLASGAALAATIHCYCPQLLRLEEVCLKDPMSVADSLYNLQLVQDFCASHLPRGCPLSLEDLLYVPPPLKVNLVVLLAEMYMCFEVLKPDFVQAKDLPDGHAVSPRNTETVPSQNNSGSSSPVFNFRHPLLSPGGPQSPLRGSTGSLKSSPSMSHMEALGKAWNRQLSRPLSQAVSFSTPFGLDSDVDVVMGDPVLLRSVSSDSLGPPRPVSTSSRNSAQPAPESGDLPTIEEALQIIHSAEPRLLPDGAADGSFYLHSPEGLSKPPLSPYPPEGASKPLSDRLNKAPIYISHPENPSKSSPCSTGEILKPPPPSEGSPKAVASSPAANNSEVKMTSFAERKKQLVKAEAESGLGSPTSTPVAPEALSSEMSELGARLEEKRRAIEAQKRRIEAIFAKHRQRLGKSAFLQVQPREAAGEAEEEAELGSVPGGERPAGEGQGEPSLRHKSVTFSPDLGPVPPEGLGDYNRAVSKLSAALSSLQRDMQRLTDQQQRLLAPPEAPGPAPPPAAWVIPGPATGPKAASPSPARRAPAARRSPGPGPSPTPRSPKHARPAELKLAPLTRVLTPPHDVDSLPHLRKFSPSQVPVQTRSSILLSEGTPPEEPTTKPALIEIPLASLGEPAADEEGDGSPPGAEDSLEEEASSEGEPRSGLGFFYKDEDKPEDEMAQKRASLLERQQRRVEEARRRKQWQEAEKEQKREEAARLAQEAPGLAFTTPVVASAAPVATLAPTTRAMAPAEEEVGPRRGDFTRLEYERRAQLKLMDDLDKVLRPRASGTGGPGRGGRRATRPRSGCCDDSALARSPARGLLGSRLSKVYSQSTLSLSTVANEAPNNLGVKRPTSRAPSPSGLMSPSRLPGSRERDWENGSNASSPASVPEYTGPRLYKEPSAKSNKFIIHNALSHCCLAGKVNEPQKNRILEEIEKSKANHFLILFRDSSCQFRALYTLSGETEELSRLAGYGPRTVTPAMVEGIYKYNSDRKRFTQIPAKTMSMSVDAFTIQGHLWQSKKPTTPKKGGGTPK
UniProt Q791T5, whole entry: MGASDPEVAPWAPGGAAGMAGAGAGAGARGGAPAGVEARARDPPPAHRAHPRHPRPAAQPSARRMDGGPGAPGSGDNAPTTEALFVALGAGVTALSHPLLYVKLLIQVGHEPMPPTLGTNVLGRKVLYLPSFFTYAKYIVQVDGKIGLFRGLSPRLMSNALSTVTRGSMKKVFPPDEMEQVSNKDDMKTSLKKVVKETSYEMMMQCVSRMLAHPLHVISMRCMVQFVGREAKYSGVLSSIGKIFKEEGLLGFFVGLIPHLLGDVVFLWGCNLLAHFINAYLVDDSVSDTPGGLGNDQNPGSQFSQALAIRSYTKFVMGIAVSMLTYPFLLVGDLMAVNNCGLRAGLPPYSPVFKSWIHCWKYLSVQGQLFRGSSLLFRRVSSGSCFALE
UniProt Q71KT5: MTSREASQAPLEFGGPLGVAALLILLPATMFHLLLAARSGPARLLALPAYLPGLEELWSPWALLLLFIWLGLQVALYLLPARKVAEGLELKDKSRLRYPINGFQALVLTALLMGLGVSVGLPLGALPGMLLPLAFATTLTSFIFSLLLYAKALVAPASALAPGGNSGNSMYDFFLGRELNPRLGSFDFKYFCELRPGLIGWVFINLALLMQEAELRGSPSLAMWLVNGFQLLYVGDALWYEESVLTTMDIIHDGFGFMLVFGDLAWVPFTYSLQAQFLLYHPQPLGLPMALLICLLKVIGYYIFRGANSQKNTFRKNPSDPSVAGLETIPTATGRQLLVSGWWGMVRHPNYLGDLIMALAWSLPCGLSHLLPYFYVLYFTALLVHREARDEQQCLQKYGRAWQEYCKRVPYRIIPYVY
UniProt Q7TNV0: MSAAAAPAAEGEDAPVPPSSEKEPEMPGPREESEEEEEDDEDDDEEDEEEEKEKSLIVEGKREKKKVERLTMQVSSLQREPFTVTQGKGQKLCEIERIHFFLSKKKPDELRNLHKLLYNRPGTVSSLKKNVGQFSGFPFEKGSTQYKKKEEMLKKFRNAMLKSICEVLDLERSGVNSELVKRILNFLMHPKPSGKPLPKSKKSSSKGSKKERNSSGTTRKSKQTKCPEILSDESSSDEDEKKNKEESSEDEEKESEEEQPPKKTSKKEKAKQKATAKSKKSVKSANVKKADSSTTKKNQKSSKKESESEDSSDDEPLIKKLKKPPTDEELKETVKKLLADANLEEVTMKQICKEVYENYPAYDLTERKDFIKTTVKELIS
UniProt Q71FD7: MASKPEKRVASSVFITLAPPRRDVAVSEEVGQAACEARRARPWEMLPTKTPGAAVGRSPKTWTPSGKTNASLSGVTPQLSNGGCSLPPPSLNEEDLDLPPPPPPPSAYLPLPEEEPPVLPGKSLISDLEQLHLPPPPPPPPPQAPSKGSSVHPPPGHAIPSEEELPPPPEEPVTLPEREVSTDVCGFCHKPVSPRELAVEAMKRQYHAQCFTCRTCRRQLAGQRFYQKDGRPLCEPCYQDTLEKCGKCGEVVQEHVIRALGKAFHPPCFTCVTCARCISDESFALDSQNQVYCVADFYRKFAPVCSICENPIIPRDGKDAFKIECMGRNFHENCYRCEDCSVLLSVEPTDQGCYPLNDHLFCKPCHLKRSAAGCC
UniProt Q7TN12: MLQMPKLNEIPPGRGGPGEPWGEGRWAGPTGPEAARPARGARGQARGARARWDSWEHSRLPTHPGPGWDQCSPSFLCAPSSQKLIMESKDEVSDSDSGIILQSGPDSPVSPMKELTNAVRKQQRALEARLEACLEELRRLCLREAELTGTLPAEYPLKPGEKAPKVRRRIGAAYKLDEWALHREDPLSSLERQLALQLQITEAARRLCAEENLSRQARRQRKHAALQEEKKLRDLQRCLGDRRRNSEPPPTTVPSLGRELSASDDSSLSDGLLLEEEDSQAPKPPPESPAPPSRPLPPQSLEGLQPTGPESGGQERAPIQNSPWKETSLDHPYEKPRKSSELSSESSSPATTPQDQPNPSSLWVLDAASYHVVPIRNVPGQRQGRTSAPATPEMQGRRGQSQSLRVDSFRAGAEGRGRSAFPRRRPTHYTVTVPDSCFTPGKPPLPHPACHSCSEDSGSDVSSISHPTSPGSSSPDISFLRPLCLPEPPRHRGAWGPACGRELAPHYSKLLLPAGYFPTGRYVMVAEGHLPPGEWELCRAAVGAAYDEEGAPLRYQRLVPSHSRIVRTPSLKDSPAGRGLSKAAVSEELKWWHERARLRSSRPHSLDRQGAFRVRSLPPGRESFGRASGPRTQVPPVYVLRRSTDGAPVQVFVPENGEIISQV

Each target was assayed with CN[C@@H]1C[C@H]2O[C@@](C)([C@@H]1OC)n1c3ccccc3c3c4c(c5c6ccccc6n2c5c31)C(=O)NC4 [staurosporine] (assay: log2 fold change of tryptic peptide abundance, ligand vs vehicle (limited proteolysis) (log2 ratio); higher = more trypsin-susceptible (destabilized)). Conditions: ligand concentration: 20 uM; sample: mouse liver crude lysate; replicate design: treated separately.

| Target | log2 fold change |
| --- | --- |
| UniProt Q7TMC8 (peptide sequence: RIPEPELWLAVGPR, peptide start residue: 754) | -0.373 |
| UniProt Q7TSV4 (peptide sequence: QLIAGGNKEELRK, peptide start residue: 45) | -0.565 |
| UniProt Q7TT23 (peptide sequence: ELEQQEYR, peptide start residue: 1163) | -0.019 |
| UniProt Q71KU9 (peptide sequence: CHSANLNGVYYR, peptide start residue: 263) | 0.469 |
| UniProt Q80U93 (peptide sequence: KRLNQLVDSLQQLR, peptide start residue: 867) | -0.35 |
| UniProt Q78J03 (peptide sequence: GSDESHTGILR, peptide start residue: 114) | -0.233 |
| UniProt Q7TSG2 (peptide sequence: ELNGGEAVPGVFPSKADEK, peptide start residue: 384) | -0.169 |
| UniProt Q7TPE5 (peptide sequence: LMWSKYPLDVQK, peptide start residue: 282) | 0.288 |
| UniProt Q7TNC4 (peptide sequence: VHELNEEIGK, peptide start residue: 126) | 0.0735 |
| UniProt Q80U62 (peptide sequence: QSQAGSVLR, peptide start residue: 379) | -0.272 |
| UniProt Q7TQC5 (peptide sequence: VQQMGVNPTSIDSGVIGKDQEKK, peptide start residue: 64) | -0.74 |
| UniProt Q80TA6 (peptide sequence: EETDHLIK, peptide start residue: 581) | 0.413 |
| UniProt Q80UW8 (peptide sequence: IQAGDPVAR, peptide start residue: 173) | 0.0494 |
| UniProt Q6Y7W8 (peptide sequence: AEQVEKAEEENRSENSLSAK, peptide start residue: 403) | 0.307 |
| UniProt Q7TPM1 (peptide sequence: RTQEEGKDWSGTAGGSR, peptide start residue: 426) | 0.604 |
| UniProt Q80U72 (peptide sequence: AGTLQVGDR, peptide start residue: 892) | -0.178 |
| UniProt Q78IK2 (peptide sequence: AGAESDGQFQFTGIKK, peptide start residue: 2) | 0.134 |
| UniProt Q7TPR4 (peptide sequence: HTNYNMEHIR, peptide start residue: 705) | 0.12 |
| UniProt Q80VC6 (peptide sequence: ALTECQGAVGLGCKPVR, peptide start residue: 153) | -0.382 |
| UniProt Q80VC9 (peptide sequence: SVSSDSLGPPRPVSTSSR, peptide start residue: 429) | -0.129 |

A run of entries taken from the entries so far, as a working copy:

| Target | log2 fold change |
| --- | --- |
| UniProt Q80UW8 (peptide sequence: IQAGDPVAR, peptide start residue: 173) | 0.0494 |
| UniProt Q6Y7W8 (peptide sequence: AEQVEKAEEENRSENSLSAK, peptide start residue: 403) | 0.307 |

(cont.)

| Target | log2 fold change |
| --- | --- |
| UniProt Q76N33 (peptide sequence: FITLFVEKLPSHR, peptide start residue: 81) | 0.141 |
| UniProt Q6ZQ29 (peptide sequence: HSLDQDLLREDLNKK, peptide start residue: 662) | 0.601 |
| UniProt Q80TJ7 (peptide sequence: VASIETGLAAAAAK, peptide start residue: 921) | 0.171 |
| UniProt Q7TMY7 (peptide sequence: YGSPGNVTK, peptide start residue: 276) | 0.683 |
| UniProt Q7TQG1 (peptide sequence: SLQLPASPAPEPSTRPAYK, peptide start residue: 967) | -0.237 |
| UniProt Q6ZPR5 (peptide sequence: HISHQTSVNADPASHEIWR, peptide start residue: 239) | -0.407 |
| UniProt Q791T5 (peptide sequence: GGAPAGVEAR, peptide start residue: 30) | -0.0915 |
| UniProt Q78PG9 (peptide sequence: EVLMDCAHLVK, peptide start residue: 66) | 0.275 |
| UniProt Q7TQI7 (peptide sequence: SNSQALNSSAQQHR, peptide start residue: 37) | -0.238 |
| UniProt Q71KT5 (peptide sequence: KNPSDPSVAGLETIPTATGR, peptide start residue: 316) | 0.232 |
| UniProt Q7TSK7 (peptide sequence: VQECPPDGR, peptide start residue: 102) | 0.311 |
| UniProt Q80TY5 (peptide sequence: QNNLLTVQLK, peptide start residue: 3894) | 0.628 |
| UniProt Q7TSI3 (peptide sequence: VMGILINR, peptide start residue: 127) | 0.527 |
| UniProt Q7TPS5 (peptide sequence: ASAMGDGNFR, peptide start residue: 868) | -0.221 |
| UniProt Q7TNV0 (peptide sequence: SGVNSELVKR, peptide start residue: 173) | 0.497 |
| UniProt Q80T69 (peptide sequence: EVQTVCAGLTR, peptide start residue: 277) | -0.294 |
| UniProt Q71FD7 (peptide sequence: CGEVVQEHVIR, peptide start residue: 248) | 1.79 |
| UniProt Q7TN12 (peptide sequence: IVRTPSLK, peptide start residue: 565) | 0.172 |
| UniProt Q80TZ9 (peptide sequence: CNISHFSDIFAAR, peptide start residue: 245) | -0.289 |
| UniProt Q7TN98 (peptide sequence: TIFVGGVPRPLR, peptide start residue: 581) | -0.445 |
